Source: article PMC6550527, “Evolution of Superinfection Immunity in Cluster A Mycobacteriophages”
The exact form of at least one protein or probe is not confirmed. A weaker result is weaker than the reference pair of the same experiment. At least one verdict was read from the data and is not stated in words by the source. Tags and fusion partners may be left off the protein sequences shown.

Biological target: T1, RepTrixie immunity repressor (Mycobacteriophage Trixie) (UniProt G1JV33)
T1 sequence (looked up, limits assumed): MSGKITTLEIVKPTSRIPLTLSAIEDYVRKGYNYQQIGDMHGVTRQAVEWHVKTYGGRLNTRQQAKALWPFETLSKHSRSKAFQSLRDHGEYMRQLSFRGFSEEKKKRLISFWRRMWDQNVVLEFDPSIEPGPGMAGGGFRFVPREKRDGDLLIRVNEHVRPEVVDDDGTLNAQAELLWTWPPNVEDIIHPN
Assay: EMSA
Details: Kd only in figure, EMSA on 8% polyacrylamide gel, serially diluted Rep with 5'-32P 30-bp dsDNA, binding buffer and temperature not given (ref. 54), protein storage buffer 50 mM Tris pH 8.0, recombinant protein, protein details: C-terminal His6 with linker (KLAAALEHHHHHH), label: 5' 32P

Row | Sequence | binding result (very low affinity) | other results
1 | TGATCGCAACTTGACACCCACCGTGAGGGG (double strand) [Gladiator stoperator 30-bp] | – | binding result: binds more weakly
2 | TGAGCCTGACTTGACATCGCACGGCGGGGG (double strand) [Peaches stoperator 30-bp] | binds more weakly | –
3 | TAGTTCCAACTTGACACTCATCAGTGAGGG (double strand) [Alma stoperator 30-bp] | binds more weakly | –
4 | TGAGCAGTACTTGACATCGCACAGGTTGGG (double strand) [Trixie C9G10C11A12 (Peaches site)] | – | binding result (end of progressive loss series): binds more weakly
5 | TGACCTTGACTTGACATCGCACACTGGGAG (double strand) [Rockstar stoperator 30-bp] | binds more weakly | –
